Assay results from PubChem BioAssay AID330 (DTP/NCI, 2004).
The list does not hold the whole screen: it is rich in T/C values a quarter to a half above the control, in often repeated tests (any T/C) and in doses without a T/C. Other doses and runs of a compound stand elsewhere. T/C: endpoint of the treated group in % of that of the vehicle group. Some doses have a count of surviving animals in place of a T/C: the source holds a T/C of zero for them, seemingly a mark for toxic or unscored doses. Some survivor counts are full or nearly so, which does not show that the dose was tolerated: survival well below the control is almost never listed, so the zero probably covers shortened survival too. Counts of survivors are from the toxicity check (mostly the fifth day) where no day follows; animals may have died later. Schedule codes are those of the source, read here as Q, the interval in days (D) or hours (H), X, the number of doses. Some doses were run more than once; their values stand side by side, smallest first. For survival time, the PubChem record calls one and a half times the control and up active, and a quarter to a half above the control has no call in these data; cut-offs in other NCI protocols can differ.

Test system: P388 leukemia ip, CD2F1 mice, survival T/C
Assay: NCI In Vivo Anticancer Drug Screen. Data for tumor model P388 Leukemia (intraperitoneal) in CD2F1 (CDF1) mice
Conditions: T/C endpoint: median survival time, higher T/C = longer survival
[1] = dose: 240.0 mg/kg/injection, schedule: Q01DX005 (ip), vehicle: Klucel (hydroxypropylcellulose) (HPC)
[2] = dose: 240.0 mg/kg/injection, schedule: Q01DX005 (ip), vehicle: saline with Tween-80
[3] = dose: 200.0 mg/kg/injection, schedule: Q01DX005 (ip), vehicle: Klucel (hydroxypropylcellulose) (HPC)

CC1CCC(C(C)C)C(OC(=O)c2ccc[n+](C)c2)C1 (stereo not given)
survivor count (dose: 100.0 mg/kg/injection, schedule: Q01DX005 (ip), vehicle: saline): 3 of 6
survivor count (dose: 200.0 mg/kg/injection, schedule: Q01DX005 (ip), vehicle: saline): 0 of 6

O=C1c2ccncc2C(=O)c2c1[nH]c1ccccc21
survivor count (dose: 7.5 mg/kg/injection, schedule: Q04DX002 (ip), vehicle: Klucel (hydroxypropylcellulose) (HPC)): 6 of 6
survivor count (dose: 15.0 mg/kg/injection, schedule: Q04DX002 (ip), vehicle: Klucel (hydroxypropylcellulose) (HPC)): 6 of 6
survivor count (dose: 60.0 mg/kg/injection, schedule: Q04DX002 (ip), vehicle: Klucel (hydroxypropylcellulose) (HPC)): 6 of 6

CNc1ncnc2[nH]ncc12
survivor count (dose: 100.0 mg/kg/injection, schedule: Q01DX009 (ip), vehicle: saline with Tween-80): 2 of 6
survivor count (dose: 100.0 mg/kg/injection, schedule: Q04DX003 (ip), vehicle: saline sonified): 3 of 6
survivor count (dose: 200.0 mg/kg/injection, schedule: Q01DX009 (ip), vehicle: saline with Tween-80): 0 of 6
survivor count (dose: 400.0 mg/kg/injection, schedule: Q04DX003 (ip), vehicle: saline sonified): 1 of 6

Cc1cc(O)c(C(=O)/C=C/c2ccnc3ccccc23)c(=O)o1
survivor count [1]: 0 of 6

COc1cc2c(cc1C(C)c1ccc(OCc3ccccc3)cc1)OCO2 (stereo not given)
survivor count (dose: 50.0 mg/kg/injection, schedule: Q01DX005 (ip), vehicle: distilled water + Tween-80): 6 of 6

O=S(=O)(c1ccc2ccccc2c1)N(CCCCCN(S(=O)(=O)c1ccc2ccccc2c1)S(=O)(=O)c1ccc2ccccc2c1)S(=O)(=O)c1ccc2ccccc2c1
survivor count [2]: 6 of 6

C[O+]=c1cccc2sc(-c3ccccc3)ccc1-2
survivor count [3]: 0 of 6

CCCCCCCCCCCC(=O)N(CCO)CCc1ccccc1
T/C (dose: 100.0 mg/kg/injection, schedule: Q01DX009 (ip), vehicle: saline): 125 % of control

CCSSC(=Nc1ccccc1)OCC(C)C
survivor count (dose: 400.0 mg/kg/injection, schedule: Q01DX009 (ip), vehicle: saline + Tween-80 + alcohol): 2 of 6

CC1(C)Nc2cccc3cccc(c23)N1
survivor count [3]: 2 of 6

CCCCCCCCCCCCCCCCCCN(C)C
survivor count (dose: 100.0 mg/kg/injection, schedule: Q01DX009 (ip), vehicle: Klucel (hydroxypropylcellulose) (HPC)): 1 of 6

FC(F)(F)Sc1c(SC(F)(F)F)c(SC(F)(F)F)n(-n2c(SC(F)(F)F)c(SC(F)(F)F)c(SC(F)(F)F)c2SC(F)(F)F)c1SC(F)(F)F
survivor count (dose: 120.0 mg/kg/injection, schedule: Q01DX005 (ip), vehicle: Klucel (hydroxypropylcellulose) (HPC)): 0 of 6
survivor count [1]: 0 of 6

CC(C)SC=O
survivor count (dose: 400.0 mg/kg/injection, schedule: Q01DX009 (ip), vehicle: Klucel (hydroxypropylcellulose) (HPC)): 3 of 6

C=CCSC(C)=O
survivor count [2]: 2 of 6

C[N+]1(C)CCOC(O)(c2ccccc2)C1 (stereo not given)
survivor count (dose: 50.0 mg/kg/injection, schedule: Q01DX009 (ip), vehicle: saline): 0 of 6

O=C(O)CCc1ccc(O)c(O)c1
survivor count (dose: 600.0 mg/kg/injection, schedule: Q01DX009 (ip), vehicle: saline): 2 of 6 and 4 of 6

OC(COc1cccc2ccccc12)CN(CCCl)CCCl (stereo not given)
T/C (dose: 1.25 mg/kg/injection, schedule: Q01DX009 (ip), vehicle: saline): 130 % of control
T/C (dose: 2.5 mg/kg/injection, schedule: Q01DX009 (ip), vehicle: saline): 131 and 140 % of control
T/C (dose: 5.0 mg/kg/injection, schedule: Q01DX009 (ip), vehicle: saline): 140 and 146 % of control
T/C (dose: 10.0 mg/kg/injection, schedule: Q01DX009 (ip), vehicle: saline): 144 and 149 % of control
survivor count (dose: 40.0 mg/kg/injection, schedule: Q01DX009 (ip), vehicle: saline): 2 of 6 and 5 of 6

CC1=CC(C)C/C=C/C2C3OC3(C)C(C)C3C(Cc4c[nH]c5ccccc45)NC(=O)C23C(=O)C=CC(=O)C1O (stereo not given)
T/C (dose: 4.0 mg/kg/injection, schedule: Q01DX005 (ip), vehicle: Klucel (hydroxypropylcellulose) (HPC)): 126 % of control
T/C (dose: 8.0 mg/kg/injection, schedule: Q01DX005 (ip), vehicle: Klucel (hydroxypropylcellulose) (HPC)): 126 % of control
